This assay is described as follows: IkB Signaling. The following applies: ABC-DLBCL IkBa-CBG/CBR dual luciferase ratio (green luciferase fused to IkBa over red control in OCI-Ly3 lymphoma cells), 4 h. Put shortly: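 In this assay, an IκBα–CBG68 fusion accumulates when IKK-driven degradation is blocked; native CBR normalizes for cell number. OCI-Ly3 cells were treated 4 h with compound and doxycycline, then green and red light read after Chroma-Glo addition.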
Setting [1] is: measured here: control luc red channel unless noted.
The mark [2] stands for this setting: measured here: IkB-luc green channel.
The mark [3] stands for this setting: measured here: control luc red channel.

This is one part of the list. Shown are side measurements of this screen, not its main read-out; they come without a call. The list favours compounds with an active or inconclusive main result. Potencies come from curve fits of mixed quality, noted in brackets.

The AC50 is the concentration giving half of the maximal activity seen. Turning to `COc1cccc(-n2nnc(-c3nc(-c4ccccc4F)no3)c2C)c1`, the AC50 under setting [1] was 0.501 µM [rising, full curve, poor fit].
For the molecule `COC(=O)c1cc(NC(=O)c2ccc3c(c2)NC(=O)c2ccccc2S3)cc(C(=O)OC)c1`, the AC50 is 15.8 µM [rising, partial curve] under setting [2] and 3.16 µM [rising, full curve] under setting [3].
On to `CSc1cccc(NC(=O)Cn2ncn3c(cc4ccccc43)c2=O)c1`, for which the AC50 under setting [1] was 25.1 µM [falling, partial curve].
The same measure, in the same setting: as for `Fc1ccccc1N1CCN(c2ncc3c(n2)CCN(Cc2cc(Br)cs2)C3)CC1`, the figure is 12.6 µM [falling, partial curve, poor fit]; as for `COc1ccc(NC(=O)CSc2nc(-c3ccco3)cc(C(F)(F)F)n2)cc1Cl`, 20 µM [falling, partial curve].
As to `CCCN(CCC)C(=O)Cn1c(=O)n(-c2ccc(Cl)cc2)c(=O)c2c3c(sc21)CCCC3`, the AC50 under setting [1] was 25.1 µM [rising, single point].
For `Fc1ccc(-c2cn3cc(Cc4ccccc4)sc3n2)cc1`, under setting [1], the AC50 is 0.2 µM [falling, full curve].
Same read-out and setting: as for `COc1cccc2cc(C(=O)NCC3CCCO3)c(=O)oc12` (centres undefined), the figure is 6.31 µM [falling, partial curve]; as for `CCCCS(=O)(=O)c1nc(-c2ccc(Br)cc2)cc(-c2ccccc2)c1C#N`, 3.16 µM [rising, full curve] [measured here: IkB-luc green channel].
With `O=C(Nc1ccc(Cl)cc1C(=O)Nc1ccccn1)c1ccco1`, the AC50 under setting [1] was 39.8 µM [falling, single point].
As to `Cc1cccc(NC(=O)CCc2c(C)nc3c(c(C)nn3C(C)(C)C)c2C)c1C`, the AC50 under setting [1] was 15.8 µM [falling, partial curve].
Still for that read-out and setting: as for `CC1CCc2c(sc3nnn(CC(=O)Nc4ccc(Cl)cc4)c(=O)c23)C1` (centres undefined), the figure is 10 µM [falling, partial curve]; as for `Cc1ccc(N2CCN(S(=O)(=O)c3ccc4[nH]c5c(c4c3)CCCCC5)CC2)c(C)c1`, 7.94 µM [falling, full curve]; as for `CCN(C(=O)c1cn(CC)c(=O)c2cc(OC)c(OC)cc12)c1ccc(C)c(C)c1`, 2.51 µM [falling, full curve, poor fit].
For the molecule `O=C(CSc1ncccc1-c1nc2ccccc2[nH]1)NCc1ccco1`, the AC50 under setting [2] was 25.1 µM [rising, partial curve] and the AC50 under setting [3] is 0.1 µM [falling, full curve].
In the case of `Cc1ccc(-n2nc(C)c3cc(C(=O)O)sc32)cc1`, the AC50 under setting [1] is 12.6 µM [falling, partial curve].
On the same count and under the same terms, then `CCOc1ccc(CNS(=O)(=O)c2ccc(-c3coc(C)n3)cc2)cc1OC`, with 0.316 µM [rising, full curve].
Take `COc1ccc(CCN2C(=O)c3[nH]nc(-c4ccccc4O)c3C2c2ccccc2)cc1OC` (centres undefined): the AC50 under setting [1] is 12.6 µM [falling, partial curve].
The same measure, in the same setting: as for `COc1ccccc1CNC(=O)c1cc2c(s1)-c1ccccc1OC2`, the figure is 0.126 µM [falling, full curve].
Take `CCC(=O)N1c2ccc(S(=O)(=O)CCC(=O)Nc3ccc(Br)c(C)c3)cc2CC1C` (centres undefined): under setting [1], the AC50 was 3.98 µM [falling, partial curve].
In the case of `CCOCCCN(Cc1ccco1)C(=O)c1cc2c(=O)[nH]c3ccc(C)cc3c2s1`, the concentration at half-maximal activity (AC50) under setting [1] is 31.6 µM [falling, single point].
On the same count and under the same terms, then `COc1ccc(/C=C(\C#N)c2nc3ccccc3n2C)c(OC)c1`, with 20 µM [falling, single point]; and `COc1cccc(NC(=O)c2cnc(SCC(=O)N3CCOCC3)n(C)c2=O)c1`, with 25.1 µM [rising, partial curve] [measured here: IkB-luc green channel].
Still for that read-out and setting: as for `Cc1ccc(Cl)cc1N1CCN(C(=O)CN2C(=O)CSc3c2c(C)nn3-c2ccccc2)CC1`, the figure is 25.1 µM [falling, partial curve].
`COc1ccc2c(c1)CCc1c(C(=O)N3CCCC3)noc1-2`: under setting [1], the AC50 was 12.6 µM [falling, partial curve, poor fit].
Still for that read-out and setting: then `CCOc1ccc(N(CC)S(=O)(=O)N2CCCC(C(=O)NCCc3ccc(OC)cc3)C2)cc1` (centres undefined), with 20 µM [falling, single point].
As for `Cc1ccc(C)c(N2CCN(C(=O)c3cc(S(=O)(=O)N4CCCCCC4)cn3C)CC2)c1`, the AC50 under setting [1] is 25.1 µM [falling, partial curve].
Take `COc1ccc(C2N(c3cc(Cl)ccc3OC)C(=O)C3CCCN32)cc1` (centres undefined): under setting [1], the AC50 is 15.8 µM [falling, partial curve].
The same measure, in the same setting: as for `COc1ccc(NC(=O)c2cc3ccccc3o2)cc1`, the figure is 15.8 µM [falling, partial curve].
The same measure, in the same setting: then `O=C(/C=C\c1ccccc1)NC1CC(=O)N(c2ccccc2)C1` (centres undefined), with 3.16 µM [rising, single point]; and `Cc1cc(C)c2c(n1)sc1c(=O)n(-c3cc(Cl)ccc3C)nnc12`, with 20 µM [falling, partial curve, poor fit]; and `CCC1CCCCN1C(=O)Cn1c(=O)cc(C(F)(F)F)c2c(C)nn(C)c21` (centres undefined), with 7.94 µM [falling, single point].
Still for that read-out and setting: as for `Cc1ccc2cc(CN(Cc3ccc4c(c3)OCO4)Cc3nnnn3Cc3ccco3)c(=O)[nH]c2c1C`, the figure is 25.1 µM [falling, partial curve]; as for `O=C1c2[nH]nc(-c3ccccc3O)c2C(c2ccc(F)cc2)N1CCO` (centres undefined), 39.8 µM [falling, single point]; as for `COc1ccc(OC)c(NC(=O)Cc2c(C(=O)O)n(C)c3ccc(C)cc23)c1`, 31.6 µM [falling, partial curve].
`COc1ccc2nc(-c3ccccc3)[nH]c2c1`: under setting [1], the AC50 was 12.6 µM [falling, partial curve].
For the molecule `CCOC(=O)c1cc(-c2ccc(OC)cc2)n(CCC(=O)Nc2nc3ccc(OCC)cc3s2)c1C`, under setting [1], the AC50 was 3.16 µM [rising, single point].
The same measure, in the same setting: as for `COc1ccc(-c2nc(SCC(=O)N3CCCCC3C)n[nH]2)cc1` (centres undefined), the figure is 0.0794 µM [falling, full curve].
Same read-out and setting: then `CCc1cccc(C)c1Nc1c(-c2cccc(O)c2)nc2nc(C)cc(C)n12`, with 31.6 µM [falling, partial curve]; and `CCc1ccc(-n2c(=O)c3c(C)c(C(=O)N(C)C)sc3n(Cc3ccccc3C#N)c2=O)cc1`, with 3.98 µM [rising, partial curve]; and `O=C(NCCCc1nc2ccccc2n1Cc1ccc(Cl)cc1Cl)c1ccco1`, with 39.8 µM [falling, single point].
On the same count and under the same terms, as for `COc1ccc(N2C(=O)CC(Sc3ncn[nH]3)C2=O)c(OC)c1` (centres undefined), the figure is 7.94 µM [falling, partial curve].
Regarding `CCc1ccccc1Nc1ccc(C(=O)O)cc1N`, the AC50 under setting [1] is 15.8 µM [falling, partial curve].
With `O=S(=O)(c1cccc(F)c1)N1CCC(Oc2ccc(-n3cnnn3)cc2)CC1`, the AC50 under setting [1] was 2.51 µM [falling, partial curve].
Consider `CCc1ccc(S(=O)(=O)c2c(C(=O)c3ccccc3)cnc3ccc(CC)cc23)cc1`, for which the AC50 under setting [1] was 7.94 µM [falling, partial curve].
The same measure, in the same setting: then `COc1ccccc1CN1CCC(CNC(=O)c2cnn(-c3ccc(Cl)cc3)c2C2CCN(C(=O)OC(C)(C)C)CC2)CC1`, with 15.8 µM [falling, single point]; and `CC(C)c1ccc(OCC(O)CN2CCN(c3ccc(F)cc3)CC2)cc1` (centres undefined), with 10 µM [falling, partial curve].
On the same count and under the same terms, then `Cc1ccccc1NC(=O)c1ccc(Cl)c(S(=O)(=O)N2CCCCCC2)c1`, with 12.6 µM [falling, partial curve].
In the case of `CCSc1nnc(NC(=O)c2ccc(C)o2)s1`, the AC50 under setting [1] is 10 µM [falling, partial curve].
Regarding `CCc1ccccc1NC(=O)c1cc(-c2ccc3c(c2)OCO3)on1`, the AC50 under setting [1] was 6.31 µM [falling, partial curve].
Still for that read-out and setting: then `Cc1ccc(C)c(-c2nc3ccc(N)cc3[nH]2)c1`, with 12.6 µM [falling, partial curve].
For `O=c1c(-c2ccc(O)cc2)coc2cc(O)ccc12`, under setting [1], the AC50 is 39.8 nM [falling, full curve] [measured here: IkB-luc green channel].
Same read-out and setting: as for `Cc1ccc(O)c(C2=Nc3ccccc3N=C(c3cccc(F)c3)C2)c1`, the figure is 12.6 µM [falling, partial curve].
Still for that read-out and setting: as for `O=C(Nc1ccc(C(=O)N2CCN(c3ccc(Cl)cc3)CC2)cc1)c1nsc2ccccc12`, the figure is 0.0316 µM [falling, full curve]; as for `CCOC(=O)NCCc1c(C)nc2c(c(C)nn2C(C)(C)C)c1C`, 39.8 µM [falling, single point]; as for `Fc1ccc(Nc2nc(Nc3ccc(F)cc3)nc(N3CCOCC3)n2)cc1`, 7.94 µM [falling, partial curve].
With `CCCCn1c(SCC(=O)Nc2ccc(F)cc2)nc2c(sc3ccccc32)c1=O`, the AC50 under setting [1] is 31.6 µM [rising, partial curve, poor fit].
Still for that read-out and setting: as for `COc1ccc(C2C(CC(=O)O)=C(O)C(=O)N2c2ccccc2)cc1` (centres undefined), the figure is 2 µM [falling, full curve]; as for `O=C(CSc1nnc(-c2ccc(Br)cc2)n1-c1ccccc1)c1ccccc1`, 0.398 µM [falling, partial curve, poor fit]; as for `CCOC(=O)C1CCN(C(=O)COc2cc(C)c(Br)c(C)c2)CC1`, 0.251 µM [falling, full curve].
Still for that read-out and setting: as for `COc1ccc(NC(=O)C(=O)NCC2(c3ccccc3)CCCC2)c(OC)c1`, the figure is 25.1 µM [falling, single point]; as for `CC(=O)N1CCc2cc(Br)cc(S(=O)(=O)CCC(=O)Nc3ccc(C)cc3Cl)c21`, 25.1 µM [falling, partial curve, poor fit].

The values above are taken from PubChem BioAssay AID445 (National Center for Advancing Translational Sciences (NCATS), 2006).
